Assay results: publication PMC11404569
For some of these results: No signal at the amounts used counts as a negative. For some of these results: At least one verdict rests on a figure or table, not on a statement of the authors. Protein sequences can lack the tags named with them. For some of these results: Weaker means in comparison with the reference protein, sequence or condition of that experiment.

Experiments:
Test in all cases: EMSA
[1] = target: T1, ECT2-108 YTH mut W464A,W521A,W526A (Arabidopsis thaliana) (UniProt Q9LJE5); conditions: up to 500 nM; thiol-protected 3' bases (*G*U); EMSA: 10 nM FAM-RNA; binding buffer 10 mM HEPES pH 8.0, 50 mM KCl, 1 mM EDTA, 0.05% Triton X-100, 5% glycerol, 10 µg/mL salmon DNA, 1 mM DTT, 40 U/mL RNasin; recombinant protein; residues 108-667; protein details: N-terminal His-SUMO; label: 5' FAM
T1 sequence (looked up): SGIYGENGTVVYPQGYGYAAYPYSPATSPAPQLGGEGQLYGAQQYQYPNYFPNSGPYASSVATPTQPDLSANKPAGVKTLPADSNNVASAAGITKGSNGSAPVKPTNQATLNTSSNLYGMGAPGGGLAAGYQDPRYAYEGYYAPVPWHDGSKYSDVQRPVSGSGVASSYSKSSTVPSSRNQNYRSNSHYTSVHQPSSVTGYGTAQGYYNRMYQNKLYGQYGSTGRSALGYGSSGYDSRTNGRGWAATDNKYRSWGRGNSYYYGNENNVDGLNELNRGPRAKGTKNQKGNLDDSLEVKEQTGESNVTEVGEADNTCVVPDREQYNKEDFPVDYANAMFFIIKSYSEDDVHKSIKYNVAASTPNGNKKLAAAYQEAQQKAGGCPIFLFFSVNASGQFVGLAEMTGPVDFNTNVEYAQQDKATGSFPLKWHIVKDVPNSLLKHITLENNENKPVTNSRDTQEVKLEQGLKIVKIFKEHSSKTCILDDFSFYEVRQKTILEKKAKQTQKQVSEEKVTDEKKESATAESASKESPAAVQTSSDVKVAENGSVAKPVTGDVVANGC

[2] = target: T2, ECT2-303 YTH mut W464A,W521A,W526A (Arabidopsis thaliana) (UniProt Q9LJE5); conditions: up to 500 nM; thiol-protected 3' bases (*G*U); EMSA: 10 nM FAM-RNA; binding buffer 10 mM HEPES pH 8.0, 50 mM KCl, 1 mM EDTA, 0.05% Triton X-100, 5% glycerol, 10 µg/mL salmon DNA, 1 mM DTT, 40 U/mL RNasin; recombinant protein; residues 303-667; protein details: N-terminal His-SUMO; label: 5' FAM
T2 sequence (looked up): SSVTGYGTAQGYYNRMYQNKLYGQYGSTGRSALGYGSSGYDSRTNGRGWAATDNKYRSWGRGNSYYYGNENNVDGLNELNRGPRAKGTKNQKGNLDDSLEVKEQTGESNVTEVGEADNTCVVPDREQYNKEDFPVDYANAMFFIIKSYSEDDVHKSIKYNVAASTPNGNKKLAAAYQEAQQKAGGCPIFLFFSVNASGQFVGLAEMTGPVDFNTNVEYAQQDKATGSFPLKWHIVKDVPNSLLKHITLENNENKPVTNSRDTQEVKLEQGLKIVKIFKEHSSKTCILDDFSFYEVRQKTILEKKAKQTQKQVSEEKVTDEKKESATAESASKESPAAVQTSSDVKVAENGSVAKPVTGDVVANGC

[3] = target: T3, ECT2-Δα4 del591-627 (Arabidopsis thaliana) (UniProt Q9LJE5); conditions: no visible stable complex, up to 1000 nM; m6A at position 25; thiol-protected 3' bases (*G*U); EMSA: 10 nM FAM-RNA; binding buffer 10 mM HEPES pH 8.0, 50 mM KCl, 1 mM EDTA, 0.05% Triton X-100, 5% glycerol, 10 µg/mL salmon DNA, 1 mM DTT, 40 U/mL RNasin; recombinant protein; residues 1-667; protein details: N-terminal His-SUMO; label: 5' FAM
T3 sequence (looked up): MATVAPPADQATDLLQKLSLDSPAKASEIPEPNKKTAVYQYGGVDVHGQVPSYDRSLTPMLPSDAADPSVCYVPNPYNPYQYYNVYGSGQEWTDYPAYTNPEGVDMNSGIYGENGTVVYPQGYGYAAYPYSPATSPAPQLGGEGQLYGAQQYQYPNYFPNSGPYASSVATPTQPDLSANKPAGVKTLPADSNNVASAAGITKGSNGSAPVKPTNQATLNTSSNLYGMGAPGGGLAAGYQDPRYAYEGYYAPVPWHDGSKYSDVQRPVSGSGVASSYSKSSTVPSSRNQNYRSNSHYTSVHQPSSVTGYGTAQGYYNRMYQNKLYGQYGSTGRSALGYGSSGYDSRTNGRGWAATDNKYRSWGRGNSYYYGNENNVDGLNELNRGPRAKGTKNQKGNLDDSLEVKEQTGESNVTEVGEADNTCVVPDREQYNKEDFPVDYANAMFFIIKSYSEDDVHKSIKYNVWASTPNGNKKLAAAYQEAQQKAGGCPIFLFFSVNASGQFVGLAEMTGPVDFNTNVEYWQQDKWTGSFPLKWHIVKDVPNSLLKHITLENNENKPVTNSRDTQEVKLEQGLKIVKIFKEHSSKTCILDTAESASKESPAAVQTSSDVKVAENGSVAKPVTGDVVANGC

[4] = target: T4, ECT2-ΔSH del376-386 (Arabidopsis thaliana) (UniProt Q9LJE5); conditions: complex visible, no doublet, up to 1000 nM; m6A at position 25; thiol-protected 3' bases (*G*U); EMSA: 10 nM FAM-RNA; binding buffer 10 mM HEPES pH 8.0, 50 mM KCl, 1 mM EDTA, 0.05% Triton X-100, 5% glycerol, 10 µg/mL salmon DNA, 1 mM DTT, 40 U/mL RNasin; recombinant protein; residues 1-667; protein details: N-terminal His-SUMO; label: 5' FAM
T4 sequence (looked up): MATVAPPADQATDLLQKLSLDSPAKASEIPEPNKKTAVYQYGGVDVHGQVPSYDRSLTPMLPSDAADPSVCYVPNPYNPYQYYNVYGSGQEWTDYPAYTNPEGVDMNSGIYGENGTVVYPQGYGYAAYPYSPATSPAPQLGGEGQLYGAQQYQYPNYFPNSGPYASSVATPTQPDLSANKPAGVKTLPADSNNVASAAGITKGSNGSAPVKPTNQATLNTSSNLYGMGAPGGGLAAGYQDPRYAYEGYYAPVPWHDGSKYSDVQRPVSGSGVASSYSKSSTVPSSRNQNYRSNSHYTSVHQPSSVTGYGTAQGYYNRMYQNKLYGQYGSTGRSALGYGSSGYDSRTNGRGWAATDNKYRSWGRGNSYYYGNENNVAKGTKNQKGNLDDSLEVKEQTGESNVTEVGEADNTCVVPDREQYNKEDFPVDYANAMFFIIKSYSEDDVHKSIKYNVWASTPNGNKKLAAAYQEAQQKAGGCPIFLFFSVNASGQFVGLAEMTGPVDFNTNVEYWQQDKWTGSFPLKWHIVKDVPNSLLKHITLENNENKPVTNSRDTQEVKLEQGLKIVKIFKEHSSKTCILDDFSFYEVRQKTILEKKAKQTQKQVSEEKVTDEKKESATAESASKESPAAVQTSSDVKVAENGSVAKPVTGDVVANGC

Sequence | binding result [1] | binding result [2] | binding result [3] | binding result [4]
AUGGGCCGUUCAUCUGCUAAAAGGACUGCUUUUGGGGCUUGU [Probe I (A)] | no binding | no binding |  | 
AUGGGCCGUUCAUCUGCUAAAAGGACUGCUUUUGGGGCUUGU [Probe I m6A] |  |  | binds more weakly | binds more weakly
